From PubChem BioAssay AID1347423 (Functional Genomics Laboratory (NCATS/FGL), 2020) come the findings set out here.

The campaign covered roughly 52,000 sequences. About 210 (0.4%) were called active.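 Rule for the calls: active = gene whose silencing raises cell survival under the drug, median off-target-corrected z-score across its silencing RNAs 2 or more; inactive = the rest.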 The list shows a part of the results.

The nature of the assay: Resistance to Poly (ADP-Ribose) Polymerase inhibitor: Gene Identification via Genome-wide siRNA Screen. As to conditions: mouse BRCA2 R2336H ES cells, olaparib, CellTiter-Glo viability; hits give high values. The method in brief:
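Mouse BRCA2 R2336H ES cells were reverse-transfected with siRNA (20 nM final), treated at 48 h with 500 nM olaparib, and read by CellTiter-Glo after 72 h. Scores: MAD-based z per siRNA, median per gene, seed off-target correction.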
For the sequence GGAAGUUGCGCCUAUGGAATT against Dhrs8, the z-score is inactive: 0.285.

As for CCUCGUGGUGAAAAUCAACTT against Lpin3, the z-score is inactive: -0.69.

With GGACUUUCUGAUAAAGAACTT against Mmaa, the z-score was inactive: 1.66.

CCUCAGUUUGAACUUGAGATT against AI429613: the z-score is inactive: 2.98.

On to “GGAUUAUGGUCUCAUUGUCTT against 4930539P14Rik”, for which the z-score was inactive: 0.794.

For GGAUGUGAACAUCGAGGACTT against Il1f10, the z-score is inactive: 0.139.

With GGUACACCUUCCUUCCCUUTT against Gcs1, the z-score was inactive: 1.24.

Turning to CCCACUACUGUAAGACAUGTT against Trim46, the z-score was inactive: 0.267.

Consider “GGCCCAUCCUGAAACCAAATT against 9230106L14Rik”, for which the z-score is inactive: 0.296.

For the sequence GGCAGUGGUUAAAGGUUCCTT against Lrp6, the z-score is inactive: 0.365.

Take GCAGUAUAUCCUACAUUGGTT against Olfr510: the z-score is active: 1.69.

On to CCUACGAAGAAGAAGAGAUTT against Zfp67, for which the z-score was inactive: -0.193.

Consider GGGCCAGCAUGUUAUCUGUTT against Myst1, for which the z-score was inactive: -2.13.

For the sequence GCUUCUUUUUGCUGAUGACTT against V1ra6, the z-score is inactive: 0.756.

Take CCUGAGGUGCAGGACUAAUTT against AI875199: the z-score was inactive: 1.65.

In the case of GCAAAAGUUAACGAUUUCCTT against Wdr41, the z-score was inactive: 0.44.

For the sequence “GGCAACAUUGCUGUCGUUCTT against 5730537D05Rik”, the z-score is inactive: -1.01.

For the sequence GGAUUCCUCUAACACAUUUTT against Keg1, the z-score is inactive: -2.47.

On to GGAAAUGACUCUCUAUGGCTT against Cyp4f13, for which the z-score is inactive: -0.0583.

As for CCUUUUCAAGCUAACAACATT against Gba2, the z-score was inactive: 0.878.

As to CCAAUAAAAUUGGUGUUCCTT against H13, the z-score is inactive: -0.423.

Regarding CCUUAGCCACUUUUUGGCCTT against Dhrsx, the z-score is inactive: 0.142.

Regarding GCGAAUUCGUGAGAAGAGCTT against Ripk4, the z-score was inactive: -0.624.

For the sequence GCAUAUUGGCUCAUCCUUUTT against Anapc2, the z-score is inactive: 1.07.

Consider GGUUACGUUGUACGAAAUCTT against Nt5c1b, for which the z-score is inactive: 0.813.

As to GGUGACCCACUACUGUAAGTT against Trim46, the z-score is inactive: -0.262.

On to “GUGCUACAUUCUGUCGGGATT against 1110025I09Rik”, for which the z-score is inactive: -0.105.

Regarding GGUAGCAUAGGCUAGCAUATT against Crcp, the z-score was inactive: 1.02.

Consider GGAAUGAAUAAAGCUACUUTT against Fah, for which the z-score was inactive: -0.522.

For GCUUAUUGAAUCCCUCUUATT against S100a17, the z-score is inactive: 0.177.

Take GGAAACAGAGAAGAUCAUUTT against Kif1a: the z-score was inactive: -1.11.

For the sequence GGUACGAUCACUCCAAAACTT against Clk1, the z-score was inactive: -2.56.

Consider GGAAGUAAGGAAAUCAAAATT against Gspt2, for which the z-score was inactive: 0.806.

GGAUUUUGGAUGAAAACACTT against BC022145: the z-score was inactive: -1.58.

Regarding GGUUGAUAAAGGAGCCAUCTT against Mcts1, the z-score is inactive: -1.19.

For the sequence GGAUAUGAACAAUAGCAUATT against Kcna1, the z-score was inactive: -0.413.

Regarding GGCUCCUGUGCAUAUCUAATT against Olfr116, the z-score is inactive: 0.0543.

As to GCAGUUAUUCAAAUUUGCCTT against Keg1, the z-score is inactive: 0.116.

Consider GGUGUUCUUCACUGACUACTT against Lrp1, for which the z-score was inactive: 0.11.

For the sequence CCGACAGCACUUGUCUUGATT against Fbxo4, the z-score was inactive: -1.89.

For the sequence GGGCUUAAGCUUUGAGGGUTT against Fkhl18, the z-score was inactive: -0.203.

GGAACUGUAGAUUGUGUACTT against Pdcd4: the z-score was inactive: 0.166.

In the case of GCCAUGUUAAAUUCUCUACTT against Poln, the z-score was inactive: 0.741.

GGACUUCUAGAGAAGAAGCTT against AI838661: the z-score is inactive: -0.124.

For GGUUGCUACAAGAUUACUATT against Rps27l, the z-score is inactive: -1.88.

For “GGCAUGAAGUGAUCAAUAUTT against 1700020F09Rik”, the z-score is inactive: -1.36.

GGAAGCUCUACCAGGUUAATT against Capg: the z-score is inactive: -1.62.

As for GGCAUGACAUCAUUGCAUGTT against Mapre2, the z-score is inactive: -0.74.

For the sequence GGGAGCCACUCUGAAGAUCTT against Pkm2, the z-score was inactive: 0.368.

In the case of CCUCUACAAUGUAACCAACTT against Kirl2, the z-score is inactive: 0.935.

In the case of GGAGCAUGUAGAGGUUUACTT against Txnrd2, the z-score was inactive: -0.978.

Turning to “GGGACAGACCUUGCCUUUGTT against 2410004C24Rik”, the z-score is inactive: 0.693.

GAACUCUCUCUUCAUCUGGTT against Clm3: the z-score was inactive: 1.09.

Consider GGAGAGCCUGAGCAAGAAUTT against AW547186, for which the z-score was inactive: -1.91.

As for GGGUGAGAAGAAAAUCCGGTT against Zbtb7, the z-score was inactive: 0.75.

Turning to GCAAGUAUUUUACAGGUGCTT against Lman1, the z-score was inactive: 0.734.

As for GGAAGAUUUAGGUUCUACUTT against Def8, the z-score is inactive: 0.875.

As for “GGAACGAGAAGAAAUUUAGTT against 3110049J23Rik”, the z-score is inactive: 0.00748.

Take “CGGACAGUAUCACAAUCGUTT against 2900055D03Rik”: the z-score is inactive: -0.898.

On to GGGAAGACCAUUUUUAAAUTT against Zfp78, for which the z-score is inactive: 0.79.

Take GCUCUCGUAGACUGCUAUATT against Ppp1r14c: the z-score is inactive: -0.76.

Turning to GACAGUCUCAAAUUUAUCCTT against Mapbpip, the z-score is inactive: -1.31.

In the case of GCUAUACACUUACUAGAAUTT against Gpr110, the z-score was inactive: -0.152.

Consider GCUCGAGGACUAUAUGAAUTT against Xrcc1, for which the z-score was inactive: -1.25.

Regarding GCAGAUGGGCAUCUAUGCUTT against Trpv1, the z-score was inactive: 1.82.

As for CCACUAUUCUGUCAAAGGGTT against Pmm2, the z-score is inactive: 0.257.

For “GGUGGUCACUAAGAAGUUCTT against 1700011K15Rik”, the z-score was inactive: 0.535.
